Further values from the same series stand in other lists.
Tests used:
Test in all cases: concentration in plasma after dosing
[1] = tested on: Mouse; settings: 0.5 h; dosed: 2-Hydroxy-4-methoxybenzophenone; 50 mg/kg; iv; Male; B6C3F1
[2] = tested on: Mouse; settings: 4 h; dosed: 2-Hydroxy-4-methoxybenzophenone; 500 mg/kg; oral; Male; B6C3F1
[3] = tested on: Mouse; settings: 1 h; dosed: 2-Hydroxy-4-methoxybenzophenone; 250 mg/kg; oral; Male; B6C3F1
[4] = tested on: Mouse; settings: 0.5 h; dosed: 2-Hydroxy-4-methoxybenzophenone; 500 mg/kg; oral; Male; B6C3F1
[5] = tested on: Rat; settings: 10 min; dosed: 2-Hydroxy-4-methoxybenzophenone; 8 mg/kg; iv; Female; F344
[6] = tested on: Mouse; settings: 16 h; dosed: 2-Hydroxy-4-methoxybenzophenone; 50 mg/kg; iv; Male; B6C3F1
[7] = tested on: Rat; settings: 0.5 h; dosed: 2-Hydroxy-4-methoxybenzophenone; 8 mg/kg; iv; Male; F344
[8] = tested on: Mouse; settings: 1.5 h; dosed: 2-Hydroxy-4-methoxybenzophenone; 50 mg/kg; iv; Male; B6C3F1
[9] = tested on: Mouse; settings: 10 h; dosed: 2-Hydroxy-4-methoxybenzophenone; 500 mg/kg; oral; Male; B6C3F1
[10] = tested on: Mouse; settings: 7 h; dosed: 2-Hydroxy-4-methoxybenzophenone; 250 mg/kg; oral; Male; B6C3F1
[11] = tested on: Mouse; settings: 4 h; dosed: 2-Hydroxy-4-methoxybenzophenone; 50 mg/kg; iv; Male; B6C3F1
[12] = tested on: Rat; settings: 5 min; dosed: 2-Hydroxy-4-methoxybenzophenone; 8 mg/kg; iv; Female; F344
[13] = tested on: Mouse; settings: 8 h; dosed: 2-Hydroxy-4-methoxybenzophenone; 50 mg/kg; iv; Male; B6C3F1
[14] = tested on: Rat; settings: 2.5 min; dosed: 2-Hydroxy-4-methoxybenzophenone; 250 mg/kg; oral; Male; F344
[15] = tested on: Mouse; settings: 0.5 h; dosed: 2-Hydroxy-4-methoxybenzophenone; 500 mg/kg; oral; Male; B6C3F1; remark: listed apart in the source
[16] = tested on: Mouse; settings: 5 min; dosed: 2-Hydroxy-4-methoxybenzophenone; 50 mg/kg; iv; Male; B6C3F1
[17] = tested on: Mouse; settings: 10 h; dosed: 2-Hydroxy-4-methoxybenzophenone; 500 mg/kg; oral; Male; B6C3F1; remark: listed apart in the source
[18] = tested on: Rat; settings: dosed: 2-Hydroxy-4-methoxybenzophenone, 500 mg/kg, oral, Male, F344
[19] = tested on: Mouse; settings: 6 h; dosed: 2-Hydroxy-4-methoxybenzophenone; 50 mg/kg; iv; Female; B6C3F1
[20] = tested on: Mouse; settings: 8 h; dosed: 2-Hydroxy-4-methoxybenzophenone; 500 mg/kg; oral; Female; B6C3F1
[21] = tested on: Mouse; settings: 1.5 h; dosed: 2-Hydroxy-4-methoxybenzophenone; 250 mg/kg; oral; Female; B6C3F1
[22] = tested on: Mouse; settings: 4 h; dosed: 2-Hydroxy-4-methoxybenzophenone; 500 mg/kg; oral; Female; B6C3F1
[23] = tested on: Mouse; settings: 4 h; dosed: 2-Hydroxy-4-methoxybenzophenone; 500 mg/kg; oral; Male; B6C3F1; remark: listed apart in the source
[24] = tested on: Mouse; settings: 1 h; dosed: 2-Hydroxy-4-methoxybenzophenone; 250 mg/kg; oral; Female; B6C3F1
[25] = tested on: Rat; settings: dosed: 2-Hydroxy-4-methoxybenzophenone, 8 mg/kg, iv, Male, F344
[26] = tested on: Mouse; settings: 1 h; dosed: 2-Hydroxy-4-methoxybenzophenone; 250 mg/kg; oral; Female; B6C3F1; remark: listed apart in the source
[27] = tested on: Rat; settings: 2.5 min; dosed: 2-Hydroxy-4-methoxybenzophenone; 100 mg/kg; oral; Male; F344
[28] = tested on: Mouse; settings: 16 h; dosed: 2-Hydroxy-4-methoxybenzophenone; 500 mg/kg; oral; Female; B6C3F1
[29] = tested on: Mouse; settings: 10 h; dosed: 2-Hydroxy-4-methoxybenzophenone; 500 mg/kg; oral; Male; B6C3F1; remark: listed apart in the source
[30] = tested on: Rat; settings: dosed: 2-Hydroxy-4-methoxybenzophenone, 250 mg/kg, oral, Female, F344
[31] = tested on: Rat; settings: 6 h; dosed: Perfluorohexanoic Acid; 80 mg/kg; oral; Female; Harlan Sprague Dawley
[32] = tested on: Rat; settings: dosed: Perfluorohexanoic Acid, 40 mg/kg, Female, Harlan Sprague Dawley
[33] = tested on: Rat; settings: 1 h; dosed: Perfluorohexanoic Acid; 40 mg/kg; Female; Harlan Sprague Dawley
[34] = tested on: Rat; settings: dosed: Perfluorohexanoic Acid, 80 mg/kg, oral, Female, Harlan Sprague Dawley
[35] = tested on: Rat; settings: 0.5 h; dosed: Perfluorohexanoic Acid; 40 mg/kg; Female; Harlan Sprague Dawley
[36] = tested on: Rat; settings: 0.5 h; dosed: Perfluorohexanoic Acid; 80 mg/kg; oral; Female; Harlan Sprague Dawley

O=C(c1ccccc1)c1ccc(O)cc1O [2,4-Dihydroxybenzophenone]
Settings | concentration in plasma [ng/mL]
[1] | 713
[2] | 320
[3] | 596
[4] | 3130
[5] | 133
[6] | 177
[7] | 43
[8] | 104
[9] | 99.1
[10] | 138
[11] | 172
[12] | 42.5

COc1ccc(C(=O)c2ccccc2)c(O)c1 [2-Hydroxy-4-methoxybenzophenone]
Settings | concentration in plasma [ng/mL]
[13] | 20.5
[14] | 23.6
[15] | 442
[16] | 28300
[17] | 30.2
[19] | 51.1
[20] | 34.5
[21] | 69.5
[22] | 147
[23] | 80.4
[24] | 105
[26] | 118
[27] | 31.4
[28] | 53.2
[29] | 15.5

concentration in plasma [ng/mL]
Settings | 1 h | 2 h | 5 min | 6 h
[18] | – | 974 | 16.3 | –
[25] | 261 | – | – | 20.7
[30] | 504 | – | – | 30.2

O=C(O)C(F)(F)C(F)(F)C(F)(F)C(F)(F)C(F)(F)F [Perfluorohexanoic Acid]
Settings | concentration in plasma [ng/mL]
[31] | 1010
[33] | 9860
[35] | 64900
[36] | 67500

concentration in plasma [ng/mL]
Settings | 0.25 h | 5 min | 6 h | 9 h
[32] | 139000 | – | 201 | –
[34] | – | 48600 | – | 238
